Results on one molecule are retold here after article PMC7498459.

The target in the assay is dihydrolipoamide acetyltransferase (pyruvate dehydrogenase complex—enzyme 2) (L. innocua (endogenous in L. innocua DSM 20649)). The assay can be described thus: affinity purification with mass spectrometry; immunomagnetic separation (IMS): SureBeads Protein A magnetic beads coated with 10 µg GSM133-A4 scFv-Fc (anti-PDC-E2); cytoplasmic preparation of L. innocua DSM 20649 diluted 1:2 in PBS, 1 h; elution with glycine 20 mM pH 2.0; bands cut from SDS-PAGE, MALDI-TOF peptide mass fingerprinting.

These are yes or no findings as the source states them, for the method shown. In cells and extracts the contact can be indirect. A yes stands for co-enrichment or nearness to the bait. Other partners may have been found.

B1: PDC-E1α (enzyme, UniProt A0ACH1DC28 1-371)
chain: MASKTKKAIIDVKKQFEAVHKQFELVQILNEKGEIVNPDLMPDLTDDELVELMTRMVWTRVLDQRSISLNRQGRLGFYAPTAGQEASQLASHYALEKHDYILPGYRDVPQLIWHGLPLTKAFLFSRGHFVGNQFPEDLNVLSPQIIIGAQIVQAAGVALGLKKRKKDAVVITYTGDGGSSQGDFYEGMNFAGAYHAPAIFVVQNNKFAISTPREKQSAAETLAQKAVAAGIPGVQVDGMDPLAVYAVTKFARERAVAGEGPTLIETMTYRYGPHTLSGDDPTRYRTKELDGEWELKDPIVRFRTFLEGKGLWNEEKENAVIDQAKEEIKVAIKEADATPKQTVTDLLKNMYETPTAPIKEQLAIYEAKESK
Regarding B1, the binding entry is on record as “binds”.
